Consider two substances from PMC2596967.

Chains of the proteins cited; added tags and fusions are not shown.
UniProt P29351: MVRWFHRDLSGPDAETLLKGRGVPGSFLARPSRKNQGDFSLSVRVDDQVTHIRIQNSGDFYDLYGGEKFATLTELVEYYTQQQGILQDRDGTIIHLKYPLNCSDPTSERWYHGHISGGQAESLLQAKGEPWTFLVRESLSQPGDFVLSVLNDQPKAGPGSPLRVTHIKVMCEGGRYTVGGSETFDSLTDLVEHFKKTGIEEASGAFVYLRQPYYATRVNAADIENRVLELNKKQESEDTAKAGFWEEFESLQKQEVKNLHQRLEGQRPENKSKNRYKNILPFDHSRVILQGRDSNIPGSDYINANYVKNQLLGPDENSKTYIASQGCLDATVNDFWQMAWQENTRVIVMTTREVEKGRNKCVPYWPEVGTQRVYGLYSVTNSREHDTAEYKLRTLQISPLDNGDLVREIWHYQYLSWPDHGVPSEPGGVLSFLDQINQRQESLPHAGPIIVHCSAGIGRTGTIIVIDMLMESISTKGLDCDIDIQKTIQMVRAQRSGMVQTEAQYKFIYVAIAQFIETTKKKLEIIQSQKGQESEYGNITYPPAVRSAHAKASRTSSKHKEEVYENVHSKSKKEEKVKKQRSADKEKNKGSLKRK
UniProt Q62406: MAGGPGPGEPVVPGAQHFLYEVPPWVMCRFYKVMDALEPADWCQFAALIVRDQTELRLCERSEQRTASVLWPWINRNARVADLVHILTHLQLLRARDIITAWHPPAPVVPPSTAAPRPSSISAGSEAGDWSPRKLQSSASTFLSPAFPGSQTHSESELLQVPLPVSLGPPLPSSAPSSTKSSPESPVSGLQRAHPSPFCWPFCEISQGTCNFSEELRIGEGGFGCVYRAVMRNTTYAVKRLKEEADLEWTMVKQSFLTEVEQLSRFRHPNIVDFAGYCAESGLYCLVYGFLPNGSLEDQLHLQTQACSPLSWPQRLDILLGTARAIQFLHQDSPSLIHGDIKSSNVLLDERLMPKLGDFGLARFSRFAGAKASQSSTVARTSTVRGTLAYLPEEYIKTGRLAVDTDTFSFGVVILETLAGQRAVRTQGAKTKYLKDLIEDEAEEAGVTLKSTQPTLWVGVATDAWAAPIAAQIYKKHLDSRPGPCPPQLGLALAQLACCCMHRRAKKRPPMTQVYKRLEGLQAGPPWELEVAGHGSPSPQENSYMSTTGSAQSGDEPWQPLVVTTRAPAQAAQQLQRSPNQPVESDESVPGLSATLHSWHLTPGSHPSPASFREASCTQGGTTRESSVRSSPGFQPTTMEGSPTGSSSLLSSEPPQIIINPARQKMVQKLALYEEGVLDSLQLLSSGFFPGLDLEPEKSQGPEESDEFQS
UniProt P47811: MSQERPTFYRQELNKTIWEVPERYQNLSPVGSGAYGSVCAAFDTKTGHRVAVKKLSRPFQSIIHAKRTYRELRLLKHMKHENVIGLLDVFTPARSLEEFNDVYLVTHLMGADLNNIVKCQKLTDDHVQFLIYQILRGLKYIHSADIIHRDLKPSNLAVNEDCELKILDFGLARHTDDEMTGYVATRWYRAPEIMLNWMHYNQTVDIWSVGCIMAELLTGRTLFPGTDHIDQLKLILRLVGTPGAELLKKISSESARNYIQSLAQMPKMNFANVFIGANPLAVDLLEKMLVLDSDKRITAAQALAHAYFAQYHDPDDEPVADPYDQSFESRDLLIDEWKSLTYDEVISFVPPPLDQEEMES

The target of test [1] is Src homology 2 domain-containing protein tyrosine phosphatase (SHP-1), endogenous in mouse macrophages (mouse (endogenous in bone marrow-derived MØ lines)) (UniProt P29351). Briefly: co-IP; endogenous proteins of mouse MØ lysates; SHP-1 IP subjected to the IRAK-1 kinase assay (reciprocal IP).
Test [2] concerns the target T1, IKK-β, endogenous in mouse macrophages (mouse (endogenous in bone marrow-derived MØ lines)) (UniProt O88351).
T1 sequence: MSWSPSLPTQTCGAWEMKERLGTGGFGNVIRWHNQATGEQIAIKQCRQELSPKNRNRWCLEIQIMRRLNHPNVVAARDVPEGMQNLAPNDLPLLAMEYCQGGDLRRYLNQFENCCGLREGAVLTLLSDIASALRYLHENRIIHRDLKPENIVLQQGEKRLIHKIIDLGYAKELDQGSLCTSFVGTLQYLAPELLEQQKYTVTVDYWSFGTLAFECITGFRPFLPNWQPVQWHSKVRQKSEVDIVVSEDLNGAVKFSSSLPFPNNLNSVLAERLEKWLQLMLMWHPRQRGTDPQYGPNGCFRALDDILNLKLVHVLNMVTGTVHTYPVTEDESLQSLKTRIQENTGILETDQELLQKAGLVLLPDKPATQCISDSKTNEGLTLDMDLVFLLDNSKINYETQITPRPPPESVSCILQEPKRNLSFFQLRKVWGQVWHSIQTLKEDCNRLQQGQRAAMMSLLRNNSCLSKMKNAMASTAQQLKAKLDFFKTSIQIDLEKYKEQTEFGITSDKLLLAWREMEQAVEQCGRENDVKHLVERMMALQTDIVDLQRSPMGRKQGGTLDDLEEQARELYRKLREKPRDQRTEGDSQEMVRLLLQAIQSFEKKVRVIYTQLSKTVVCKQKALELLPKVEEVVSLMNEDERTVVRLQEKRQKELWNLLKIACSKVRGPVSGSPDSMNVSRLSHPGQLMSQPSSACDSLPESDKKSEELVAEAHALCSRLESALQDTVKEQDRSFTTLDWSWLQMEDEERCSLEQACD
Briefly: co-IP; endogenous proteins of mouse MØ lysates (no orthovanadate); IPs of IRAK-1 or other kinases loaded on a gel with 32P-labelled poly(Glu4Tyr), SHP-1 band seen by in gel PTP assay; cells at resting state or L. donovani-infected.

Test [3] deals with IL-1 receptor-associated kinase 1 (IRAK-1), endogenous in mouse macrophages (mouse (endogenous in bone marrow-derived MØ lines)) (UniProt Q62406). The description is as above.
Test [4] addresses p38, endogenous in mouse macrophages (mouse (endogenous in bone marrow-derived MØ lines)) (UniProt P47811). Described as above.
Test [5] addresses IL-1 receptor-associated kinase 1 (IRAK-1), endogenous in mouse macrophages (mouse (endogenous in bone marrow-derived MØ lines)) (UniProt Q62406). Briefly: co-IP; endogenous proteins of mouse MØ lysates; IP with 4 µg IRAK-1 or SHP-1 antibody on protein A/G agarose beads, three washes with lysis buffer, western blot; cells naive, L. donovani-infected and/or stimulated with LPS (100 ng/ml).

No constants are given. Whether binding was seen depends on the method and setting. In cells and extracts the contact can be indirect. Some binding calls cover weakened binding; strength is not graded here.

For “IL-1 receptor-associated kinase 1 (IRAK-1), endogenous in mouse macrophages (from UniProt Q62406 1-710)”, in test [1], the binding entry is on record as “binds”.
As for “Src homology 2 domain-containing protein tyrosine phosphatase (SHP-1), endogenous in mouse macrophages (from UniProt P29351 1-595)”, the binding result in test [2], in test [3], in test [4] and in test [5] was “binds” each time.
